# Data reported in PubChem BioAssay AID588497 (NMMLSC, 2011).
# About 780 (0.22%) of roughly 360,000 compounds were called active. The inconclusive results got no clear call from the source; some entries with a clear call stand among them for comparison. Cut-off read from the data, not from the text of the source: active = inhibition above about 35% (passing the limit was not always enough); inconclusive = no clear call, values can overlap the other calls.
# Tested on: Botulinum neurotoxin type F light chain protease (Clostridium botulinum)
# Assay: BoNT/F light chain protease inhibitors, primary screen, biochemical, flow cytometry, MLPCN library (AID 588497); note: plate controls were buffer without enzyme for full effect and enzyme alone for no effect
# Details: Multiplex microsphere protease cleavage assay, at 10 µM, stronger effect = higher value
row,Structure (SMILES),inhibition
1,CCOc1ccc(C2NC(=S)NC3=C2CCc2ccccc23)cc1 (stereo unspecified),inconclusive: 23.6%
2,COc1cccc(NC(=O)COc2ccc(C)cc2)c1,inconclusive: 2.8%
3,CCN(CC)CCNc1nc(-n2nc(C)cc2C)nc2sc3c(c12)CC(C)(C)OC3,inconclusive: 33.6%
4,CN1C(=O)CC(N2CCN(Cc3ccc(Cl)cc3)CC2)C1=O (stereo unspecified),inconclusive: -2.4%
5,O=C(CN1C(=O)S/C(=C/C=C/c2ccccc2)C1=O)Nc1ccc(C(=O)O)cc1,inactive: -3.7%
6,O=C(COc1ccccc1)NCC(c1ccco1)N1CCN(c2ccccc2)CC1 (stereo unspecified),inconclusive: 17.9%
7,CCCCCCCCCCCCS[C@H]1CS(=O)(=O)C[C@@H]1O,inconclusive: -81.8%
8,CCCCC(=O)N/N=C/c1c(O)n(Cc2ccc(F)cc2)c(=O)[nH]c1=O,inconclusive: 21.1%
9,O=C(Nc1ccccc1)/C(=C/c1ccc(F)cc1)NC(=O)c1ccco1,inactive: -3.7%
10,CN(CC(=O)Nc1ccc(F)cc1)CC(=O)Nc1ccc(F)c(F)c1F,inactive: 4%
11,N/C(=N\OC(=O)c1ccc(Br)cc1)c1cccc([N+](=O)[O-])c1,inconclusive: -35.6%
12,COc1ccc(Br)c(Cn2c(C)c(C(=O)NCc3ccc4c(c3)OCCO4)sc2=O)c1,inactive: -8.1%
13,COC(=O)Cn1c(-c2ccc(OC)cc2)c(-c2ccc(OC)cc2)nnc1=O,inconclusive: -1.3%
14,CC1=C(C(=O)OCc2ccccc2)C(c2ccc([N+](=O)[O-])cc2)NC(=O)N1C (stereo unspecified),inconclusive: 3%
15,O=C1CCS/C(=N\N=C\c2ccc(Cl)cc2Cl)N1,inconclusive: -64%
16,CS(=O)(=O)N1CCc2ccc(NC(=O)C3CCCO3)cc2C1 (stereo unspecified),inactive: 4%
17,Cn1c(SCc2ccccc2)nnc1-c1ccc2nonc2c1,inconclusive: -54.3%
18,O=C(NCCS(=O)(=O)N1CCN(c2cccc(Cl)c2)CC1)C1CC1,inconclusive: -5.7%
19,CCOC(=O)C1CCN(Cc2cccc(Oc3ccccc3)c2)CC1,inconclusive: 8.6%
20,CCOc1ccc(CN2CCNC(=O)C2CC(=O)NCCc2nc(C)c3c(n2)CCC3)cc1 (stereo unspecified),inactive: 12.5%
21,COc1cscc1C(N)=O,inactive: -1.1%
22,COc1ccc(-n2c(COc3ccccc3)n[nH]c2=S)cc1,inconclusive: -10.9%
23,O=C(O)/C(=N/NC(=O)c1ccc(Cl)cc1)c1ccccc1,inconclusive: -78%

row,Structure (SMILES),inhibition
1,COc1cc(OC)c(OC)cc1CNCc1ccc2c(c1)OCO2,inconclusive: -15.7%
2,COc1ccc2c(=O)c(-c3ccc(C)cc3)c(-c3ccccc3)oc2c1,inactive: -10%
3,Cc1ccc(N2C(=O)CC(N3CCN(C4CCc5ccccc5C4)CC3)C2=O)cc1 (stereo unspecified),inactive: -12.3%
4,NC(=O)NCC(c1ccccc1)C1CCCCC1 (stereo unspecified),inconclusive: -7.6%
5,O=C1CCC(C(=O)OCC(=O)Nc2ccc(Cl)cc2C(F)(F)F)=NN1,inconclusive: -6.7%
6,COc1ccccc1NC(=O)c1ccccc1Oc1ccccc1,inconclusive: -23.6%
7,COc1cc(OC)cc(C(=O)Nc2ccc(S(=O)(=O)N3CCOCC3)cc2)c1,inconclusive: 12.5%
8,CCN(c1ccccc1)S(=O)(=O)c1ccc(C(=O)Nc2cc(C)ccn2)cc1,inactive: -6.9%
9,COc1cc(C(=O)NCCCNC(=O)c2cc(OC)c(OC)c(OC)c2)cc(OC)c1OC,inconclusive: -60.7%
10,CCCC(C)C(=O)Nc1ccc(Cl)cn1 (stereo unspecified),inconclusive: 3.9%
11,CCOC(=O)c1c(C)[nH]c(C(=O)OCC(=O)N(C)CC(=O)Nc2ccccc2Cl)c1C,inconclusive: 2%
12,COc1ccc(-n2c(SCC(=O)Nc3cccc4ccccc34)nc(O)cc2=O)cc1,inconclusive: 3%
13,Cc1ccc(C(=O)N2C(=O)C(c3ccccc3)Oc3ccccc32)cc1 (stereo unspecified),inconclusive: 73.7%
14,Nc1cccc(S(=O)(=O)c2cccc(N)c2)c1,inconclusive: -7.5%
15,O=C(c1ccc(S(=O)(=O)Nc2ccc(F)cc2)cc1)N1CCN(C(=O)c2ccco2)CC1,inconclusive: -10.9%
16,Cc1ccc(-c2nc(NC(=O)CSc3nnnn3-c3ccccc3)ns2)cc1,inconclusive: -27.9%
17,C#CCOCOCC#CCN(CC)CC,inconclusive: -5.9%
18,CCCCCC1CCC(C(=O)N2CCOCC2)CC1 (stereo unspecified),inconclusive: -35%
19,CCC(CC)N1CCN(Cc2nc3ccccc3c(=O)n2-c2ccc(F)cc2)CC1,inconclusive: -6.8%
20,CC1(C)NC(=O)N(CC(O)CN2CCOCC2)C1=O (stereo unspecified),inconclusive: 4%
21,Clc1ccc(SCNc2ccccc2Cl)cc1,inconclusive: 4.4%
22,CN1CCc2c(sc3c2C(=O)NC(c2ccc(-c4ccc(Cl)cc4)o2)N3)C1 (stereo unspecified),inconclusive: -306%
23,CCOc1ccc(N(CC(=O)Nc2cc(Cl)ccc2C)S(C)(=O)=O)cc1,inconclusive: 13.1%

# Structures from the list above that have bromine (2):
row,Structure (SMILES),inhibition
11,N/C(=N\OC(=O)c1ccc(Br)cc1)c1cccc([N+](=O)[O-])c1,inconclusive: -35.6%
12,COc1ccc(Br)c(Cn2c(C)c(C(=O)NCc3ccc4c(c3)OCCO4)sc2=O)c1,inactive: -8.1%
